## Percent effect of library compounds

By UniProt entry, the sequences of proteins in these tests, tags left out. Residues count along the entry.
UniProt P9WNZ1, whole entry: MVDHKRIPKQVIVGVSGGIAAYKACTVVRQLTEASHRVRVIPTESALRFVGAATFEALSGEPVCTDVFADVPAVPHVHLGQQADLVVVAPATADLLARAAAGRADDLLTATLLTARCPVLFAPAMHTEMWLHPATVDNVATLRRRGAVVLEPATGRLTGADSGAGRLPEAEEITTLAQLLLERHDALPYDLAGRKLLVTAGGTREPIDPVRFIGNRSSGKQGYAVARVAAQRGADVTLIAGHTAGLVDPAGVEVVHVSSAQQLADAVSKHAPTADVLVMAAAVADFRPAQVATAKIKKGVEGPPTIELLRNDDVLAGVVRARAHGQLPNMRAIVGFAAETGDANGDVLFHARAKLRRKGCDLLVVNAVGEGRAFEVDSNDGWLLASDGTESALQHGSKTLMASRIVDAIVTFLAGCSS
UniProt I6X8D2, whole entry: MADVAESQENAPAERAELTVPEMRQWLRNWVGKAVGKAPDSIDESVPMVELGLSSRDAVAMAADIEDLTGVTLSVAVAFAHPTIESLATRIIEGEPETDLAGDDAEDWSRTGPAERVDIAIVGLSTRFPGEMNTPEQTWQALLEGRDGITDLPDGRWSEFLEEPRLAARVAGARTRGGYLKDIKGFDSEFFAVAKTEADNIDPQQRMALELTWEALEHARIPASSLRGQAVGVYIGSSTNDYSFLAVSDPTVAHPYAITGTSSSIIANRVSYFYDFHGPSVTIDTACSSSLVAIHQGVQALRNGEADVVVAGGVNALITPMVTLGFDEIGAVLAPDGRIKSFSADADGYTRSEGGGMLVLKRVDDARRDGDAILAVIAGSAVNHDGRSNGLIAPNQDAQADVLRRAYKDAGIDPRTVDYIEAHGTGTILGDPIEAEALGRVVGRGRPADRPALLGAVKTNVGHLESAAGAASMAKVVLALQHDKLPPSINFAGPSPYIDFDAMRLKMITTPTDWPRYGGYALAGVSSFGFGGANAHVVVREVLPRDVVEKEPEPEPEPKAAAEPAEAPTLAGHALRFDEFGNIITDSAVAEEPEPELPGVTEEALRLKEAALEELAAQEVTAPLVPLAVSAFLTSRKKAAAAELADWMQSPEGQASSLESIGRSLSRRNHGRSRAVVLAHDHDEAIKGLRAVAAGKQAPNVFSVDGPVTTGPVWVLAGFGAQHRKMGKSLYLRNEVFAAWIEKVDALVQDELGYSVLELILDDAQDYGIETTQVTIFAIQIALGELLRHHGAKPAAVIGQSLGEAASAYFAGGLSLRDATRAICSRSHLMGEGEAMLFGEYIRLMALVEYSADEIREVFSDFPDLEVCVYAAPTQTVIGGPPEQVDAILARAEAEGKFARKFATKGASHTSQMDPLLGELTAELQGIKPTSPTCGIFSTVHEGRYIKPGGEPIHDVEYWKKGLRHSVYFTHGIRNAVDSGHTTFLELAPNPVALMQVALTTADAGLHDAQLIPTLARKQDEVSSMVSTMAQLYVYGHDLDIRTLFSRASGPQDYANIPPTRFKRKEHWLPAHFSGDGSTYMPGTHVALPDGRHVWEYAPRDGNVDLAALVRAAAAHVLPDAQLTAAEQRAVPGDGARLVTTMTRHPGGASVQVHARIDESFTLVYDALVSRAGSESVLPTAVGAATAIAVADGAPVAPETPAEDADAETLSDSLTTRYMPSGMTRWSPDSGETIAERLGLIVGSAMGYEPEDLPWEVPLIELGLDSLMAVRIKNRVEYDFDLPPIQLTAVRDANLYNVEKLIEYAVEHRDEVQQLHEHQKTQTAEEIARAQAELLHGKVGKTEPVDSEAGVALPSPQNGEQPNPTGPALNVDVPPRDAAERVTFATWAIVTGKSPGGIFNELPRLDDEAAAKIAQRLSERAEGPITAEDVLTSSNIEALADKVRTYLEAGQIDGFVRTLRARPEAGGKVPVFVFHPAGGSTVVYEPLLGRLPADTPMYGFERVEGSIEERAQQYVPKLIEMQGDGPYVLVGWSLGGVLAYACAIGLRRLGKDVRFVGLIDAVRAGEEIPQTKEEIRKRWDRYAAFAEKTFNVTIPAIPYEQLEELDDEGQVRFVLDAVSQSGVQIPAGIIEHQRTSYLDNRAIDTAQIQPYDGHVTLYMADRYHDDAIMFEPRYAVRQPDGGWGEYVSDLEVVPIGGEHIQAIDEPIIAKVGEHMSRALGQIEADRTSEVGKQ
UniProt P9WPC5, whole entry: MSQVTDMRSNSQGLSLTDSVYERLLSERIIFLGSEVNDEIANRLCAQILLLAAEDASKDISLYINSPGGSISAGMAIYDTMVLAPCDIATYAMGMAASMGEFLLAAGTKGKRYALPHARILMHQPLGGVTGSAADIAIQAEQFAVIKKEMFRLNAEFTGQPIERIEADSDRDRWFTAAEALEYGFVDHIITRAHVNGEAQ
UniProt P9WPC3, whole entry partner: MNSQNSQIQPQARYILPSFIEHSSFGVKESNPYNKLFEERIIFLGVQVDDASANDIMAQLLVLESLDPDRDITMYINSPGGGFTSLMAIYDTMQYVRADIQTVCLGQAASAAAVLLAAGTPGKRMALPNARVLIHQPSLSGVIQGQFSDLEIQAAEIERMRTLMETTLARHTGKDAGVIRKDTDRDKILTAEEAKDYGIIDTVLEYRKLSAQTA
UniProt A4I591, 1-473: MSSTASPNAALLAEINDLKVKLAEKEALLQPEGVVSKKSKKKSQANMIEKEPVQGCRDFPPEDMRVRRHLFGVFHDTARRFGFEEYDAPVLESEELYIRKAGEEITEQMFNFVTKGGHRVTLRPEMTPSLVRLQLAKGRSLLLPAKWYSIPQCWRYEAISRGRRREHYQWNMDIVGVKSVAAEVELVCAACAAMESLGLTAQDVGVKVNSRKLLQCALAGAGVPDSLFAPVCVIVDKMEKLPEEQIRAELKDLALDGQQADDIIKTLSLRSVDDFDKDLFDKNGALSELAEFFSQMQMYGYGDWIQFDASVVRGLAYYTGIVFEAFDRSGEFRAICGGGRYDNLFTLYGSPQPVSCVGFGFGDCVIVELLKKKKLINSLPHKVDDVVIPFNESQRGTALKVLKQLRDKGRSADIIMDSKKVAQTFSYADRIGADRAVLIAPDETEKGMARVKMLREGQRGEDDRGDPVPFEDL
UniProt P9WFT3, whole entry: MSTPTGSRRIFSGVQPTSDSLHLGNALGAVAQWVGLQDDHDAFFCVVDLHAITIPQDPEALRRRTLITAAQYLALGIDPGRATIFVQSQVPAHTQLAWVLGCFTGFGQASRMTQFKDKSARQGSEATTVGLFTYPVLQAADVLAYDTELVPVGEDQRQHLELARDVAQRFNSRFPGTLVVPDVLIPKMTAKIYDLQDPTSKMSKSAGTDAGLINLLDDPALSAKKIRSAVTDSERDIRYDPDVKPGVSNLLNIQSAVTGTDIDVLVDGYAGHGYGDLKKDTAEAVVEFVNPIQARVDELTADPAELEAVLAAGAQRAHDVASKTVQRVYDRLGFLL

A: 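Coenzyme A biosynthesis protein CoaBC, Mycobacterium tuberculosis (UniProt P9WNZ1). Enzyme assay of CoaBC with a phosphate dye (Biomol Green) read at 650 nm. Concentration: 30 µM. Direction is inferred from only a few compounds that gave an IC50; most scored high, so higher reads as stronger inhibition. Most strong results did not repeat in a second test. Size under these conditions: about 67,000 compounds, about 40 of them at 50% or above in at least one test.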
B: 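Polyketide synthase Pks13, Mycobacterium tuberculosis (UniProt I6X8D2). Enzyme assay of the thioesterase domain of polyketide synthase 13; the read-out is not stated. Compounds at 30 µM. The record gives no direction; the compounds picked for IC50 retests had high values, so higher reads as stronger inhibition. Of about 67,000 compounds tested this way, about 300 (0.46%) reached 50% or more in at least one test.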
C: 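Protease assay of ClpP1P2, read by the AMC dye that it sets free. Target: ClpP1P2, Mycobacterium tuberculosis (UniProt P9WPC5 and UniProt P9WPC3). Compounds at 50 µM. Direction is inferred from only a few compounds that gave an IC50; most scored high, so higher reads as stronger inhibition. Most other retested compounds had strongly negative values. About 69,000 compounds were tested under these conditions; 0.015% (about 10) showed 50% or more at least once.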
D: 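Assay of Toxoplasma gondii numbers, read through their beta-galactosidase reporter with a colour substrate. Compounds at 10 µM. The record gives no direction; the compounds picked for IC50 retests had high values, so higher reads as fewer parasites. About 67,000 compounds were tested under these conditions; 0.38% (about 260) showed 50% or more at least once.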
E: 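Histidine-tRNA ligase, Leishmania infantum (UniProt A4I591). Enzyme assay of histidyl-tRNA synthetase; the read-out is not stated. Tested at 30 µM. Direction is inferred from retests: higher values go with stronger inhibition. The assay is labelled LdHisRS but filed under L. infantum. Size under these conditions: about 69,000 compounds, about 410 of them at 50% or above in at least one test.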
F: 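Enzyme assay of tryptophanyl-tRNA synthetase; the read-out is not stated. Target: Tryptophan-tRNA ligase, Mycobacterium tuberculosis (UniProt P9WFT3). Tested at 10 µM. Higher most likely means stronger inhibition; the record gives no direction and few retests gave an IC50. Size under these conditions: about 65,000 compounds, about 64 of them at 50% or above in at least one test.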

Each number is a percent effect as filed. How 0% and 100% were set is not recorded. Most values in the screen are low, and negative values occur. This is an unselected part of the compounds tested. A dash means the value is not listed here; it may have been measured.

| structure | A | B | C | D | E | F |
|---|---|---|---|---|---|---|
| `N#Cc1ccnc(N2CCN(CC(O)c3cccc(F)c3)CC2)c1` (configuration not stated) | 2.643 | -14.04 | -23.17 | 0.2658 | 15.09 | -1.341 |
| `O=C(NCc1nc2cc(F)ccc2[nH]1)c1ccc[nH]1` | -0.4854 | -2.785 | -155.3 | -12.61 | 16.67 | 0.288 |
| `CCOc1cccc(C(=O)N2CCCn3nc(CCC(=O)O)cc3C2)c1` | 0.1206 | 6.824 | -6.458 | 5.921 | 20 | 1.522 |
| `O=C(Cc1cccs1)NC1CCN(c2cccc(F)c2)CC1` | 12.15 | -21.29 | -10.94 | -3.284 | 21.15 | 1.924 |
| `Cc1cc(CNc2ccc(-c3nc(C4CC4)no3)cn2)no1` | 0.7246 | -2.877 | -3.761 | -4.003 | -1.01 | -2.364 |
| `Cc1ccccc1CN1CCN(C(=O)CN2CCOC2=O)CC1` | 7.158 | -17.48 | -4.841 | -17.23 | 3.125 | -2.062 |
| `COC(=O)NC1(C(=O)Nc2ccc(-c3cc[nH]n3)cc2)CCCC1` | 0.6274 | -17.86 | -6.928 | -5.753 | 13.56 | -1.814 |
| `CCCNS(=O)(=O)Cc1ccc(Br)cc1` | 1.707 | -10.06 | -23.02 | 3.068 | 3.2 | -0.1505 |
| `Cc1nn(C)c(N2CCOCC2)c1CNCC1CCCN1C` (configuration not stated) | -0.2439 | -19.06 | 7.191 | 3.786 | 13.33 | 0.1698 |
| `O=C(O)C(F)(F)F.[H][C@]12CCN(C(=O)NC(C)C)C[C@@]1([H])OCCN(Cc1csc(C)n1)C2` | - | - | - | -24.61 | - | - |
| `Cc1cc(CNC(=O)NCc2cccs2)no1` | 1.935 | -10.13 | -19.42 | 8.563 | 1.739 | -2.434 |
| `Cc1cc(C(=O)N2CCCCC2c2nc3cc(F)ccc3[nH]2)nn1C` (configuration not stated) | -1.02 | 0.7585 | -26.41 | 4.119 | 23.46 | 2.673 |
| `NC(=O)CNC(c1ccccc1)c1ccccc1` | -31.25 | -10.22 | 18.46 | 11.4 | 12.36 | 2.184 |
| `CCN(CC)c1ncc(CNCC2CCCn3ccnc32)s1` (configuration not stated) | -1.613 | -2.981 | 17.35 | -11.38 | 13.16 | -1.351 |
| `Cc1nnc(CN2C[C@H](NC(=O)C3CCOCC3)[C@@H](C(C)C)C2)s1` | -2.408 | -23.06 | -11.53 | -2.34 | 8.861 | 2.449 |
| `COc1cccc(-c2n[nH]cc2CNC2CCC(O)CC2)c1.Cl` (configuration not stated) | - | - | - | 10.11 | - | - |
| `Cc1cnc2c(c1NCc1ccc3c(c1)OCO3)c(=O)n(C)c(=O)n2C` | 3.308 | 37.96 | 0.6976 | -0.04398 | 23.08 | 0.1961 |
| `CCS(=O)(=O)N1CCC2(CN(c3ccsc3)C(=O)CN2C)C1.O=C(O)C(F)(F)F` (configuration not stated) | - | - | - | 1.296 | - | - |
| `Cc1nc(C(C)Nc2ncnc3c2CCNCC3)c(C)s1` (configuration not stated) | -58.74 | -30.6 | -12 | -2.679 | 4.819 | -3.765 |
| `CCOCC(O)CN1CCN(C(=O)Cc2cccc(Cl)c2)CC1` (configuration not stated) | 5.115 | -5.34 | -31.31 | -4.353 | 12.84 | -2.496 |
| `Cn1c2ccc(F)cc2c2ncn(CCCN(CCO)CCO)c(=O)c21` | -1.937 | -15.08 | -7.947 | 7.563 | -2.174 | -0.9488 |
| `CCN(CC)CCN1CC[C@H]2OCC[C@@]2(C(=O)N2CCOCC2)C1` | -0.7519 | 13.36 | -6.911 | - | 10.26 | -5.118 |
| `CC(Oc1ccc(S(C)(=O)=O)cc1)C(=O)NC(N)=O` (configuration not stated) | -2.959 | -23.48 | 7.012 | 4.568 | 18.18 | 2.124 |
| `Cn1cc(CN2C[C@@H]3OCCN(CC4CCCC4)[C@@H]3C2)cn1` | 7.009 | -22.62 | -6.104 | - | 19.74 | -7.052 |
| `Cc1nccn1[C@@H]1CC[C@@H](N(C)S(=O)(=O)c2ccccc2F)[C@H]1O` | -29.3 | -15.61 | -5.406 | 2.466 | -8.392 | -3.59 |
| `CCN(C)c1ncnc2c1CCN(C(=O)c1cnccn1)CC2.O=C(O)C(F)(F)F` | - | - | - | -3.797 | - | - |
| `Cc1cc(C)c(CNC(=O)N(C)Cc2ccc(F)cc2)c(=O)[nH]1` | 0.9126 | -20.23 | -7.803 | 7.117 | -21.93 | 7.012 |
| `Cc1cc(SC(C)(C)C)ccc1NC(=O)CNC(N)=O` | 2.564 | -25.65 | -8.986 | -6.55 | 8.547 | -4.925 |
| `O=C(Cn1c(=O)oc2ccccc21)N1Cc2cncnc2C1` | 8.245 | -27.39 | -5.091 | -4.118 | 20.87 | -0.228 |
| `COCCN1CCC(NCc2ccc(Cl)cc2)C1` (configuration not stated) | 2.389 | -9.124 | -7.639 | -7.365 | 23.08 | -4.061 |
| `O=C1N(Cc2cccc(F)c2)CCC12CCCNC2` (configuration not stated) | 4.247 | -12.36 | -4.508 | -18.16 | 7.692 | -6.831 |
| `Cc1nc(C)c(S(=O)(=O)NC(=O)c2ccoc2)s1` | 2.184 | 6.005 | 3.211 | -0.7318 | 2.381 | 2.592 |
| `CC(CN1CCC2(CC1)N=C(c1cccnc1)NC2=O)c1ccccc1` (configuration not stated) | 7.143 | -37.13 | -5.634 | 2.264 | 5.208 | -6.914 |
| `CN(c1ncccc1C#N)C1CCN(CCc2ccccn2)CC1` | - | -27.52 | -5.082 | 4.746 | 23.94 | 3.935 |
| `CC(O)CN1CCC(CNCc2ccccc2F)CC1` (configuration not stated) | 5.627 | -17.38 | -37.19 | -0.9357 | 7.339 | -5.928 |
| `CCN(C(C)=O)c1nc(CN2CCCCC2Cn2cncn2)cs1` (configuration not stated) | 3.226 | -11.59 | -23.61 | -4.151 | 3.478 | -5.161 |
| `Cc1ccc(N2CC[C@H](OCC3CC3)[C@@H]2Cc2cccnc2)nn1` | -1.333 | 11.38 | 4.369 | - | 13.46 | - |
| `CC(CNC(=O)N(C)Cc1ccco1)N1CCc2sccc2C1` (configuration not stated) | 1.965 | -7.625 | 19.94 | 14.25 | 14.29 | 0.9332 |
| `Cc1nc(NCCc2ccccc2)cc(C(=O)N2CCCCC2)n1` | 16.65 | -43.48 | -4.207 | 16.38 | 19.47 | 1.577 |
| `COc1ccccc1C(C)(C)NC(=O)NC1CCC(O)CC1` (configuration not stated) | 0.8906 | -2.357 | -11.35 | -5.358 | 7.317 | -2.079 |
| `O=C(O)C(F)(F)F.[H][C@@]12CCN(Cc3ccc(C)o3)C[C@@]1([H])O[C@@H](C(=O)N1CCCO1)C2` | - | - | - | -1.806 | - | - |
| `Fc1ccc(CN2CCO[C@H]3[C@H](Oc4ccccn4)CC[C@@H]32)cc1` | 7.818 | 13.62 | -23.26 | - | 28.57 | 4.719 |
| `Cc1ccc(S(C)(=O)=O)cc1NCC(=O)NCCC1=CCCCC1` | 0.1988 | -15.81 | 2.848 | -21.85 | 17.33 | -1.698 |
| `c1ccc(COC2CCN(c3cncc(-n4cccn4)n3)CC2)cc1` | 11.39 | 48.78 | -39.11 | 6.331 | 15.38 | -2.814 |
| `O=C(O)C(F)(F)F.O=C(O)C(F)(F)F.[H][C@@]12OCCN(Cc3ccc(OC)cc3)[C@@]1([H])CC[C@H]2OCCN1CCCC1` | - | - | - | 6.365 | - | - |
| `O=C1CC(NS(=O)(=O)N2CCOCC2)CN1CCc1ccccc1` (configuration not stated) | -2.213 | -6.567 | -7.057 | 8.898 | 2.564 | -5.307 |
| `CS(=O)(=O)c1ccc(C(=O)N2CCCC(n3ccnc3)C2)cc1` (configuration not stated) | 19.52 | -26.83 | -6.124 | -13.36 | 3.571 | -4.856 |
| `Cc1ccccc1[C@@H]1CN(Cc2ccc(C(F)(F)F)nc2)C[C@H]1C(=O)O` | -0.3686 | - | -11.45 | -4.508 | 9.302 | -2.874 |
| `O=C1OCCC1N1CCN(c2ccc(O)cc2)CC1` (configuration not stated) | 2.016 | -5.19 | 6.341 | 37.94 | 21.05 | -0.3632 |
| `Cn1cnc2c1CCN(C(C(=O)N1CCCCC1)c1ccccc1)C2` (configuration not stated) | 8.147 | -41.83 | 1.516 | 8.167 | 20.59 | 0.09909 |
| `Cl.NCCC(=O)Nc1ccc(-c2ccccc2)cc1` | - | - | - | 10.41 | - | - |
| `CCC(NC(=O)C1CCN(S(C)(=O)=O)CC1)c1ccc(OC)c(OC)c1` (configuration not stated) | 1.818 | -8.89 | -4.371 | 15.26 | 4.717 | -3.563 |
| `COc1ccc(C(=O)N2CCC(Oc3ccccc3)(C(=O)O)CC2)o1` | -1.442 | 0.2242 | -10.65 | 2.781 | -2.083 | -0.2283 |
| `CCNC(=O)[C@@H]1C[C@H](NC(=O)c2cncnc2C)CN1Cc1ccsc1` | 0.2554 | -28.11 | -2.006 | -5.653 | 12.99 | -1.112 |

Repeated from the top, 3 entries:

{"structure": "N#Cc1ccnc(N2CCN(CC(O)c3cccc(F)c3)CC2)c1", "stereo": "configuration not stated", "A": 2.643, "B": -14.04, "C": -23.17, "D": 0.2658, "E": 15.09, "F": -1.341}
{"structure": "O=C(NCc1nc2cc(F)ccc2[nH]1)c1ccc[nH]1", "A": -0.4854, "B": -2.785, "C": -155.3, "D": -12.61, "E": 16.67, "F": 0.288}
{"structure": "CCOc1cccc(C(=O)N2CCCn3nc(CCC(=O)O)cc3C2)c1", "A": 0.1206, "B": 6.824, "C": -6.458, "D": 5.921, "E": 20, "F": 1.522}

Data taken from ChEMBL document CHEMBL3988442, “University of Dundee, Small-Polar-MMV Screening Library” (2021).